Experimental data: PubChem BioAssay AID504804 (Drosophila RNAi Screening Center, 2011)
The screen tested about 19,000 reagents; this is a random part of those that have a named target and a result. Over the whole deposit, 47 (0.25%) were called active. 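Signals are raw, not normalised; exact z-scores behind calls not deposited; actives needed confirmation, so some wells reaching 2 SD are inactive.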 Reagents against one gene are numbered here. Names joined by + are all predicted targets of the reagent.

- Assay: 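Knock-downs shielding fly cells from apoptosis caused by DNA damage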 (primary screen)
- System: Drosophila Kc cells
- Knock-down reagent: long dsRNA against Drosophila genes, 0.5 µg dsRNA per well
- Duration: 96 h (48 h knock-down, then 48 h drug)
- Conditions: doxorubicin 5 µg/ml for 48 h, added 48 h after dsRNA
- Measurement: 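Viability measured as cellular ATP by luminescence after 48 h knock-down then 48 h doxorubicin at 5 µg/ml; unnormalised plate counts for each replicate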
- Scale: raw ATP luminescence: higher = more viable cells, protection from doxorubicin
- Rule for the call: 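z-score of 2 or more over plate mean in both duplicates, retained only when retests and separate dsRNAs confirm the protection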

| gene knocked down | dsRNA no. | raw ATP luminescence, replicate 1 | raw ATP luminescence, replicate 2 | activity call |
| --- | --- | --- | --- | --- |
| AP-1mu | 1 | 49950 | 31450 | inactive |
| CG32486 | 1 | 34413 | 49913 | inactive |
| Prim1 | 1 | 68493 | 74247 | inactive |
| ais | 1 | 29503 | 28483 | inactive |
| CG3734 | 1 | 69260 | 92510 | inactive |
| CG8888 | 1 | 66490 | 57290 | inactive |
| CG34331 | 1 | 3.46e5 | 3.29e5 | inactive |
| Arts + Apl | 1 | 50737 | 40180 | inactive |
| bchs | 1 | 40277 | 41783 | inactive |
| CG31606 | 1 | 2.73e5 | 2.73e5 | inactive |
| CecA1 | 1 | 30010 | 31310 | inactive |
| hmw | 1 | 31120 | 31663 | inactive |
| CG17560 | 1 | 79130 | 59520 | inactive |
| TfIIA-S-2 | 1 | 66850 | 57880 | inactive |
| mTerf3 | 1 | 39893 | 44013 | inactive |
| Gmd | 1 | 1.02e5 | 63913 | inactive |
| CG10286 | 1 | 65623 | 27703 | inactive |
| dnc | 1 | 23160 | 28820 | inactive |
| dnc | 2 | 49000 | 58050 | inactive |
| dnc | 3 | 47330 | 59920 | inactive |
| dnc | 4 | 38330 | 47600 | inactive |
| dnc | 5 | 73740 | 61070 | inactive |
| CG5262 | 1 | 28330 | 28643 | inactive |
| Drep4 | 1 | 42980 | 79220 | inactive |
| Ccp84Ac | 1 | 54987 | 60997 | inactive |
| PIG-H + Kmn2 | 1 | 84947 | 59607 | inactive |
| Atat | 1 | 36943 | 35117 | inactive |
| SCCRO | 1 | 44977 | 30927 | inactive |
| Ctu2 | 1 | 77210 | 59563 | inactive |
| sstn | 1 | 54020 | 49520 | inactive |
| CG3906 | 1 | 73263 | 52510 | inactive |
| CG6179 | 1 | 2.86e5 | 2.86e5 | inactive |
| FER | 1 | 70860 | 47237 | inactive |
| FER | 2 | 62793 | 50163 | inactive |
